Laboratory results taken from article PMC9654362.
Results are given in words; binding and its absence hold for the method and conditions named. Binding seen in cells or lysates may run through a third protein. These calls come from enrichment with a bait or labelling near it, and not all partners need be listed.

B1: CDKAL1 (enzyme, UniProt Q5VV42 1-579)
chain: MPSASCDTLLDDIEDIVSQEDSKPQDRHFVRKDVVPKVRRRNTQKYLQEEENSPPSDSTIPGIQKIWIRTWGCSHNNSDGEYMAGQLAAYGYKITENASDADLWLLNSCTVKNPAEDHFRNSIKKAQEENKKIVLAGCVPQAQPRQDYLKGLSIIGVQQIDRVVEVVEETIKGHSVRLLGQKKDNGRRLGGARLDLPKIRKNPLIEIISINTGCLNACTYCKTKHARGNLASYPIDELVDRAKQSFQEGVCEIWLTSEDTGAYGRDIGTNLPTLLWKLVEVIPEGAMLRLGMTNPPYILEHLEEMAKILNHPRVYAFLHIPVQSASDSVLMEMKREYCVADFKRVVDFLKEKVPGITIATDIICGFPGETDQDFQETVKLVEEYKFPSLFINQFYPRPGTPAAKMEQVPAQVKKQRTKDLSRVFHSYSPYDHKIGERQQVLVTEESFDSKFYVAHNQFYEQVLVPKNPAFMGKMVEVDIYESGKHFMKGQPVSDAKVYTPSISKPLAKGEVSGLTKDFRNGLGNQLSSGSHTSAASQCDSASSRMVLPMPRLHQDCALRMSVGLALLGLLFAFFVKVYN
B2: Peroxiredoxin 6 (PRDX6), endogenous in HEK-293T (enzyme, UniProt P30041 1-224)
chain: MPGGLLLGDVAPNFEANTTVGRIRFHDFLGDSWGILFSHPRDFTPVCTTELGRAAKLAPEFAKRNVKLIALSIDSVEDHLAWSKDINAYNCEEPTEKLPFPIIDDRNRELAILLGMLDPAEKDEKGMPVTARVVFVFGPDKKLKLSILYPATTGRNFDEILRVVISLQLTAEKRVATPVDWKDGDSVMVLPTIPEEEAKKLFPKGVFTKELPSGKKYLRYTPQP

Target: 3xFlag-FTH1 (ferritin heavy chain, H Ferritin subunit) (human) (UniProt P02794)
Assay: affinity purification with mass spectrometry; 3xFlag-FTH1 immunoprecipitated from HEK-293T lysate on anti-FLAG M2 magnetic beads after pre-clearing on Protein G Dynabeads; washes with 150 and 300 mM NaCl in lysis buffer; elution with 3xFLAG peptide; SDS-PAGE, in situ trypsin digestion, nanoLC-MS/MS; empty vector as control

| Binder | binding |
| --- | --- |
| B1 | binds |
| B2 | binds |
